Values from PubChem BioAssay AID1259425 (University of Nebraska Medical Center, 2018)

- Assay: 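Find knockdowns that reproduce the gene expression pattern seen when KSR1 is lost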 (primary screen)
- Cells: HCT116 human colon cancer cells
- Reagent: siRNA pool against human genes, 50 nM siRNA
- Detection: 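mRNA of six signature genes measured together by branched-DNA assay after 50 nM siRNA pool, blank removed, divided by geometric mean of two housekeeping genes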
- Reading the numbers: BNIP3L mRNA: higher = more BNIP3L transcript after knockdown; NDRG1 mRNA: higher = more NDRG1 transcript after knockdown
The deposit covers about 14,000 reagents; this is an unselected part. The numbers tell different reagents against one gene apart. Not all columns of the deposit are shown. Not stated in the record: the time to read-out.

target | reagent | BNIP3L mRNA, set 1 | NDRG1 mRNA, set 1
CSF1 | 1 | 0.0607 | 0.124
INKA2 | 1 | 0.0878 | 0.129
MYCT1 | 1 | 0.119 | 0.286
CRHBP | 1 | 0.0837 | 0.0959
VWF | 1 | 0.13 | 0.212
CENPE | 1 | 0.0608 | 0.195
SOX1 | 1 | 0.252 | 1.46
RASD2 | 1 | 0.236 | 0.233
CEP290 | 1 | 0.102 | 0.103
CEP290 | 2 | 0.105 | 0.523
USP40 | 1 | 0.239 | 0.228
CUX2 | 1 | 0.0324 | 0.275
TMPRSS2 | 1 | 0.126 | 0.279
PPP5C | 1 | 0.0857 | 0.28
WNT7A | 1 | 0.136 | 0.197
ANKRD13C | 1 | 0.103 | 0.132
DNAJC7 | 1 | 0.0895 | 0.116
LIN7C | 1 | 0.0647 | 0.274
TTC13 | 1 | 0.174 | 0.47
VPREB3 | 1 | 0.0853 | 0.315
CLEC16A | 1 | 0.0962 | 0.125
NHLH2 | 1 | 0.166 | 0.495
PPP1R16A | 1 | 0.0688 | 0.16
BCL2L2 | 1 | 0.0685 | 0.225
IL22 | 1 | 0.161 | 0.202
DESI2 | 1 | 0.131 | 0.304
SNPH | 1 | 0.115 | 0.132
P2RY13 | 1 | 0.0952 | 0.177
IRX1 | 1 | 0.199 | 0.198
RTCB | 1 | 0.0741 | 0.247
TPM4 | 1 | 0.0715 | 0.0663
WDR18 | 1 | 0.174 | 0.931
KRT3 | 1 | 0.0594 | 0.14
SLC27A5 | 1 | 0.063 | 0.111
MDFIC | 1 | 0.272 | 0.251
DPP6 | 1 | 0.169 | 0.248
ESRP1 | 1 | 0.101 | 0.162
HEXA | 1 | 0.145 | 0.166
COA7 | 1 | 0.139 | 0.133
NOCT | 1 | 0.196 | 0.297
OR3A1 | 1 | 0.0965 | 0.0361
ZNF566 | 1 | 0.144 | 0.0933
TMPRSS15 | 1 | 0.0659 | 0.149
PRDM12 | 1 | 0.101 | 0.249
SPTBN5 | 1 | 0.196 | 0.587
DLX1 | 1 | 0.0946 | 0.0674
EXOC7 | 1 | 0.105 | 0.343
SLC13A4 | 1 | 0.121 | 0.308
GIT1 | 1 | 0.206 | 0.445
PAX8 | 1 | 0.0603 | 0.745

Looked up above:
CENPE, BNIP3L mRNA, set 1: 0.0608
For “NDRG1 mRNA, set 1”, VWF is entered as 0.212
For “BNIP3L mRNA, set 1”, DESI2 reads 0.131
Entry for SLC13A4 in “BNIP3L mRNA, set 1”: 0.121
RASD2, NDRG1 mRNA, set 1 = 0.233
Result for PPP1R16A under “NDRG1 mRNA, set 1”: 0.16
